{"source": "PubChem BioAssay AID1259308 (NCATS, 2017)", "aim": "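Knock-downs that increase output of a recombinant reporter protein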 (primary screen)", "cell system": "human HEK293 embryonic kidney cells stably expressing firefly luciferase (HEK-CMV-Luc2-Hygro)", "knock-down reagent": "single siRNA against human genes, 0.8 pmol siRNA per well", "timing": "72 h", "measured": "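Reporter luminescence and viable-cell signal on separate replicate plates, given as percent of non-targeting control and median/MAD z-scores, plus per-cell luciferase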", "scale": "total luciferase, z-score and total luciferase, % of control: higher = more reporter protein produced", "active means": "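An siRNA counts as active if its total luciferase robust z-score exceeds 3; genes with two or more such siRNAs out of three were retested with fresh siRNAs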", "calls": "active = raised luciferase; inactive = no rise", "note": "Shown is an unselected part of about 59,000 reagents. Over the whole deposit, about 1,510 (2.6%) got an active call. 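Calls use total luciferase alone and ignore viability, so some active siRNAs may act by altering cell number.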 Reagents against one gene are numbered here. Not all columns of the deposit are shown. No sequences are given here."}
{"gene": "IL4 (GeneID 3565)", "reagent": 1, "total luciferase, z-score": 1.19, "total luciferase, % of control": 106, "call": "inactive"}
{"gene": "IL4 (GeneID 3565)", "reagent": 2, "total luciferase, z-score": 0.328, "total luciferase, % of control": 88.4, "call": "inactive"}
{"gene": "IL4 (GeneID 3565)", "reagent": 3, "total luciferase, z-score": -0.468, "total luciferase, % of control": 72.6, "call": "inactive"}
{"gene": "LOC642947 (retired record) (GeneID 642947)", "reagent": 1, "total luciferase, z-score": 3.97, "total luciferase, % of control": 161, "call": "active"}
{"gene": "LOC642947 (retired record) (GeneID 642947)", "reagent": 2, "total luciferase, z-score": 0.539, "total luciferase, % of control": 92.6, "call": "inactive"}
{"gene": "LOC642947 (retired record) (GeneID 642947)", "reagent": 3, "total luciferase, z-score": 1.96, "total luciferase, % of control": 121, "call": "inactive"}
{"gene": "ZNF826P (GeneID 664701)", "reagent": 1, "total luciferase, z-score": -0.507, "total luciferase, % of control": 71.8, "call": "inactive"}
{"gene": "ZNF826P (GeneID 664701)", "reagent": 2, "total luciferase, z-score": 0.341, "total luciferase, % of control": 88.7, "call": "inactive"}
{"gene": "ZNF826P (GeneID 664701)", "reagent": 3, "total luciferase, z-score": -0.762, "total luciferase, % of control": 66.7, "call": "inactive"}
{"gene": "FAM13B (GeneID 51306)", "reagent": 1, "total luciferase, z-score": 2.31, "total luciferase, % of control": 128, "call": "inactive"}
{"gene": "FAM13B (GeneID 51306)", "reagent": 2, "total luciferase, z-score": -1.52, "total luciferase, % of control": 51.7, "call": "inactive"}
{"gene": "FAM13B (GeneID 51306)", "reagent": 3, "total luciferase, z-score": 0.669, "total luciferase, % of control": 95.2, "call": "inactive"}
{"gene": "SERF1A (GeneID 8293)", "reagent": 1, "total luciferase, z-score": -0.575, "total luciferase, % of control": 70.5, "call": "inactive"}
{"gene": "SERF1A (GeneID 8293)", "reagent": 2, "total luciferase, z-score": -0.336, "total luciferase, % of control": 75.2, "call": "inactive"}
{"gene": "SERF1A (GeneID 8293)", "reagent": 3, "total luciferase, z-score": 1.61, "total luciferase, % of control": 114, "call": "inactive"}
{"gene": "ARRDC5 (GeneID 645432)", "reagent": 1, "total luciferase, z-score": 0.0375, "total luciferase, % of control": 82.6, "call": "inactive"}
{"gene": "ARRDC5 (GeneID 645432)", "reagent": 2, "total luciferase, z-score": 0.0233, "total luciferase, % of control": 82.4, "call": "inactive"}
{"gene": "ARRDC5 (GeneID 645432)", "reagent": 3, "total luciferase, z-score": -0.481, "total luciferase, % of control": 72.3, "call": "inactive"}

Targets above whose gene name begins with L or l:
{"gene": "LOC642947 (retired record) (GeneID 642947)", "reagent": 1, "total luciferase, z-score": 3.97, "total luciferase, % of control": 161, "call": "active"}
{"gene": "LOC642947 (retired record) (GeneID 642947)", "reagent": 2, "total luciferase, z-score": 0.539, "total luciferase, % of control": 92.6, "call": "inactive"}
{"gene": "LOC642947 (retired record) (GeneID 642947)", "reagent": 3, "total luciferase, z-score": 1.96, "total luciferase, % of control": 121, "call": "inactive"}

The results go on.
{"gene": "MERTK (GeneID 10461)", "reagent": 1, "total luciferase, z-score": 0.708, "total luciferase, % of control": 96, "call": "inactive"}
{"gene": "MERTK (GeneID 10461)", "reagent": 2, "total luciferase, z-score": -0.966, "total luciferase, % of control": 62.7, "call": "inactive"}
{"gene": "MERTK (GeneID 10461)", "reagent": 3, "total luciferase, z-score": -0.0148, "total luciferase, % of control": 81.6, "call": "inactive"}
{"gene": "FGR (GeneID 2268)", "reagent": 1, "total luciferase, z-score": 0.153, "total luciferase, % of control": 84.9, "call": "inactive"}
{"gene": "FGR (GeneID 2268)", "reagent": 2, "total luciferase, z-score": -0.268, "total luciferase, % of control": 76.6, "call": "inactive"}
{"gene": "FGR (GeneID 2268)", "reagent": 3, "total luciferase, z-score": -2.23, "total luciferase, % of control": 37.4, "call": "inactive"}
{"gene": "NR5A1 (GeneID 2516)", "reagent": 1, "total luciferase, z-score": 1.86, "total luciferase, % of control": 119, "call": "inactive"}
{"gene": "NR5A1 (GeneID 2516)", "reagent": 2, "total luciferase, z-score": 0.693, "total luciferase, % of control": 95.7, "call": "inactive"}
{"gene": "NR5A1 (GeneID 2516)", "reagent": 3, "total luciferase, z-score": -2.05, "total luciferase, % of control": 41, "call": "inactive"}
{"gene": "SDHCP5 (GeneID 642502)", "reagent": 1, "total luciferase, z-score": 2.03, "total luciferase, % of control": 122, "call": "inactive"}
{"gene": "SDHCP5 (GeneID 642502)", "reagent": 2, "total luciferase, z-score": 0.619, "total luciferase, % of control": 94.2, "call": "inactive"}
{"gene": "SDHCP5 (GeneID 642502)", "reagent": 3, "total luciferase, z-score": 1.19, "total luciferase, % of control": 106, "call": "inactive"}
{"gene": "UBL4B (GeneID 164153)", "reagent": 1, "total luciferase, z-score": -1.06, "total luciferase, % of control": 60.7, "call": "inactive"}
{"gene": "UBL4B (GeneID 164153)", "reagent": 2, "total luciferase, z-score": -1.24, "total luciferase, % of control": 57.3, "call": "inactive"}
{"gene": "UBL4B (GeneID 164153)", "reagent": 3, "total luciferase, z-score": -0.255, "total luciferase, % of control": 76.8, "call": "inactive"}
